At least one structure is not confirmed: it was looked up by name or label, or the drawing left a doubt.
Key:
Assay type in all cases: in vivo, C57BL/6 mice
[1] = system: myositis-induced mouse model; experiment: Secondary experiment: H&E staining of quadriceps and hamstring muscle, inflammatory cell infiltration and scoring; conditions: day 14, vs negative control; mitochondria 5 μg IV single on day 7; dexamethasone 0.8 mg/kg daily IP day 7 to 14
[2] = system: myositis-induced mouse model; experiment: Tertiary experiment: H&E staining of quadriceps and hamstring muscle, inflammatory cell infiltration and scoring; conditions: day 14, vs negative control, dexamethasone 0.8 mg/kg daily IP day 7 to 14
[3] = system: myositis-induced mouse model; experiment: Secondary experiment: mRNA of IL-6 in muscle (RT-qPCR); conditions: day 14, normalized to β-actin; mitochondria 5 μg IV day 7; dexamethasone 0.8 mg/kg daily IP day 7 to 14
[4] = system: myositis-induced mouse model; experiment: Secondary experiment: concentration of IL-1β, IL-6 and TNF-α in blood (ELISA); conditions: day 14, compared to negative control; mitochondria 5 μg IV day 7; dexamethasone 0.8 mg/kg daily IP day 7 to 14
[5] = system: myositis-induced mouse model; experiment: Primary experiment: concentration of IL-6 in blood (ELISA); conditions: day 14; mitochondria 5 μg IV single on day 1 or day 7; dexamethasone 0.8 mg/kg daily IP day 1 to 14
[6] = system: myositis-induced mouse model; experiment: Tertiary experiment: mRNA of IL-6 and TNF-α in muscle (RT-qPCR); conditions: dexamethasone 0.8 mg/kg daily IP day 7 to 14
[7] = system: myositis-induced mouse model; experiment: Primary experiment: H&E staining of quadriceps and hamstring muscle, inflammatory cell infiltration and scoring; conditions: day 14, vs negative control; mitochondria 5 μg IV single on day 1 or day 7; dexamethasone 0.8 mg/kg daily IP day 1 to 14

Compound: C[C@@H]1C[C@H]2[C@@H]3CCC4=CC(=O)C=C[C@]4(C)[C@@]3(F)[C@@H](O)C[C@]2(C)[C@@]1(O)C(=O)CO [dexamethasone]
- number of the inflammatory cells infiltrated into the muscle fibers [1]: reduced
- score of the muscle fibers into which inflammation was infiltrated [1]: significantly reduced
- number of the inflammatory cells infiltrated into the muscle fibers (scoring system, FIG. 20) ([2]; 5 μg of mitochondria): significantly reduced
- number of the inflammatory cells infiltrated into the muscle fibers ([2]; mitochondria 0.2 μg, 1 μg or 5 μg IV single day 7): reduced
- expression of mRNA of IL-6 in muscle [3]: not reduced
- concentration of IL-6 in the blood [4]: increased
- concentration of IL-6 in the blood [5]: reduced
- expression of mRNA of TNF-α in the muscles ([6]; 5 μg of mitochondria): not reduced
- expression of mRNA of IL-6 in the muscles ([6]; mitochondria transplantation group (0.2, 1, 5 μg)): not reduced
- number of the inflammatory cells infiltrated into the muscle fibers [7]: reduced
- score of the muscle fibers into which inflammation was infiltrated [7]: reduced
